# Values quoted from earlier work as cited in publication PMC4684479 (Molecular imaging and biology : MIB : the official …, 2016).
# Settings: pigs; cited from earlier work
structure (smiles),measurement,value
CC1(C)C(/C=C/C=C/C=C/C=C2\N(CCCCS(=O)(=O)[O-])c3ccc4ccccc4c3C2(C)C)=[N+](CCCCS(=O)(=O)[O-])c2ccc3ccccc3c21.[Na+] [ICG],blood half-life (t1/2β),3.6 min
